Source: patent publication US20240287177A1 (Merck KGaA, published 2024)
Results are given in words; binding and its absence hold for the method and conditions named.

Protein sequences, listed by entry. Tags and fused reporters are not part of them. Lines headed by an entry give the natural chain unless they say otherwise; changes in a name come on top.
UniProt O14931: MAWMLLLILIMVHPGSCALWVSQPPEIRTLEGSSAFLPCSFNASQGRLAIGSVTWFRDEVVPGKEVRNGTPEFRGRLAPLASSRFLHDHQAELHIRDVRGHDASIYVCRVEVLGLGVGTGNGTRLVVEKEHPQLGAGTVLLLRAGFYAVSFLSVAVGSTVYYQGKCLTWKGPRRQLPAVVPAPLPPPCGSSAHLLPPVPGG

Target: recombinant human NKp30 extracellular domain, his-tagged (human) (UniProt O14931)
Assay: BLI as in Example 1

B1: VHH1.10 (humanized) (VHH)
VHH: EVQLVESGGGVVQPGGSLRLSCAASGFTLDDYTIGWVRQAPGKGLEWVSCFSPSDGTTYYADSVKGRFTISRDNAKNTLYLQMNSLRAEDTAVYYCAASFADGSSWCYDYWGQGTLVTVSS
- binding: no binding (tested: ≤100 nM)
